Test results published in patent US20180303807A1, “ANDROGEN RECEPTOR LIGANDS” (DUKE UNIVERSITY, priority 2015, published 2018).
At least one structure is not confirmed: it was looked up by name or label, or the drawing left a doubt.

System: AR
Test: Real-time PCR of AR target gene transcription in LNCaP-AR (AR overexpressing) cells, CRPC model
Assay type: cell-based
Conditions: benchmark compounds
Description: Real-Time PCR (CRPC model of AR overexpressing prostate cancer cells, Table 2, B4-B7). LNCaP-AR (AR overexpressing cells) cells were seeded in 12-well plates in RPMI 1640 (8% charcoal-stripped fetal calf serum (CFS)). […] AR target gene transcription (PSA, NKX3.1, FKBP5) was assessed by realtime PCR.
For B4-B7, scoring system is based on the relative AR target gene agonist/antagonist activity of test compounds when compared to benchmark compounds enzalutamide or bicalutamide. […] The lack of agonist activity is desirable for therapies intended to treat CRPC. For B4 and B6, a score of 1 indicates less agonism (highly desired activity) than benchmark compound enzalutamide, a score of 2 indicates equal agonism to enzalutamide (desirable), a score of 3 indicates agonism between enzalutamide and bicalutamide (less desirable activity), a score of 4 indicates equal agonism to bicalutamide (liability), and a score of 5 indicates higher agonism than bicalutamide (liability). […]

With `CC(O)(CS(=O)(=O)c1ccc(F)cc1)C(=O)Nc1ccc(C#N)c(C(F)(F)F)c1` (stereo not shown) [bicalutamide, reference compound] the “agonist activity in AR overexpressing LNCaP cells (model of CRPC)” value was “does possess agonist activity”.
